According to the supplement of paper PMC10849652:
This is one part of the list.

By UniProt entry, the sequences of proteins in these tests, tags left out. Where a name states a change or a piece, a line headed by the entry shows the natural chain unless it says otherwise.
UniProt Q9H300: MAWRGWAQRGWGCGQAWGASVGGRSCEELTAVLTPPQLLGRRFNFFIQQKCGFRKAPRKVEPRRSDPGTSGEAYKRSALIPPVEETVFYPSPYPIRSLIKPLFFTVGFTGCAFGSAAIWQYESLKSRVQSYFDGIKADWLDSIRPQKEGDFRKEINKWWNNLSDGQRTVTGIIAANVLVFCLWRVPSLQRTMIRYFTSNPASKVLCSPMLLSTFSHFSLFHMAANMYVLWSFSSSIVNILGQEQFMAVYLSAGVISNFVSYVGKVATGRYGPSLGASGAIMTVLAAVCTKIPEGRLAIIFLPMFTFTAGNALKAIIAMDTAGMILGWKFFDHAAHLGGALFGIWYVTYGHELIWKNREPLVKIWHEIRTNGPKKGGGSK
UniProt O75459: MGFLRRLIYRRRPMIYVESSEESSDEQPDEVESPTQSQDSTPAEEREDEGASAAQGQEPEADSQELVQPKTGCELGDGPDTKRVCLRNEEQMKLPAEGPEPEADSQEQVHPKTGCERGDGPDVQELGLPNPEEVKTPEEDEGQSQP
UniProt Q9BPZ3: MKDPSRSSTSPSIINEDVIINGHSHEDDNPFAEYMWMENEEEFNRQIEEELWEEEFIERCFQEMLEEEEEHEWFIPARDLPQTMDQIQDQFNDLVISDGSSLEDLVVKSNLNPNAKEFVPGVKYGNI
UniProt Q9BZF1: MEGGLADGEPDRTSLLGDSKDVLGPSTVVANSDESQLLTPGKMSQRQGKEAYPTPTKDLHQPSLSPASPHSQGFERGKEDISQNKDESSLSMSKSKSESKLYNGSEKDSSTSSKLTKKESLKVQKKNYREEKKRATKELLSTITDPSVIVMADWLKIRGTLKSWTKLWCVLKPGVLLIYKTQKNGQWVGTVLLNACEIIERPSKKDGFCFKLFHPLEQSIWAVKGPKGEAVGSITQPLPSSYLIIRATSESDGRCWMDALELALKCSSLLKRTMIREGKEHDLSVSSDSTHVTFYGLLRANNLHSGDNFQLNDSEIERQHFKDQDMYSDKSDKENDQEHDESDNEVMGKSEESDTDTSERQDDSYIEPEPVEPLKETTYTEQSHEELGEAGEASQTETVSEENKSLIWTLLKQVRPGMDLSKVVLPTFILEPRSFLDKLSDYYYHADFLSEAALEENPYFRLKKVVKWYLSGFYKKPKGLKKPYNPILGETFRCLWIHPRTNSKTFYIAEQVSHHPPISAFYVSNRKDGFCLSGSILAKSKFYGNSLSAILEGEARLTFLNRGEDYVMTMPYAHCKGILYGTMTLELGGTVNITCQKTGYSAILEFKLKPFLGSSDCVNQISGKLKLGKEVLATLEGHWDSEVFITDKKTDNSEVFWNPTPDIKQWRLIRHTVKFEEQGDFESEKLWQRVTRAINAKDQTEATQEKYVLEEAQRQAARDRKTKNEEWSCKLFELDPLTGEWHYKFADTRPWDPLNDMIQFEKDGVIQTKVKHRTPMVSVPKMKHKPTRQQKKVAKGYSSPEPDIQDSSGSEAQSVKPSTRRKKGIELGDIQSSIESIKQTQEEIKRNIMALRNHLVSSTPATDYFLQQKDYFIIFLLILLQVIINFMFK
UniProt Q9UBU9: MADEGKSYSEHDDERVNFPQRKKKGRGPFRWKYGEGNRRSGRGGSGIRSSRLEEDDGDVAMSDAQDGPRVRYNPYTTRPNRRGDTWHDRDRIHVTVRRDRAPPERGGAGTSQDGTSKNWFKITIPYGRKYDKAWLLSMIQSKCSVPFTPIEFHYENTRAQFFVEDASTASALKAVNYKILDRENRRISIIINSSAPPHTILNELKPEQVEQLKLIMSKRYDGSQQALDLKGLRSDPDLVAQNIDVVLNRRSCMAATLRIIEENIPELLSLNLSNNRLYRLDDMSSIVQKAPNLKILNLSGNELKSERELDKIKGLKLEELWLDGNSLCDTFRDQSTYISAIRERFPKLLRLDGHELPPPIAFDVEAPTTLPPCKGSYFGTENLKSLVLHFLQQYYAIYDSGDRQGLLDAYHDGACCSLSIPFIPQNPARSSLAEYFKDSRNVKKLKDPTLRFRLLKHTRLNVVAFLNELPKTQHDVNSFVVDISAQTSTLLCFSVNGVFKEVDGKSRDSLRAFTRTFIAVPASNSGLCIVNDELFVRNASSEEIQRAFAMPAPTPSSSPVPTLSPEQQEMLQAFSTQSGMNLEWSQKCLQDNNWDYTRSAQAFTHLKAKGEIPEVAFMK
UniProt Q13416: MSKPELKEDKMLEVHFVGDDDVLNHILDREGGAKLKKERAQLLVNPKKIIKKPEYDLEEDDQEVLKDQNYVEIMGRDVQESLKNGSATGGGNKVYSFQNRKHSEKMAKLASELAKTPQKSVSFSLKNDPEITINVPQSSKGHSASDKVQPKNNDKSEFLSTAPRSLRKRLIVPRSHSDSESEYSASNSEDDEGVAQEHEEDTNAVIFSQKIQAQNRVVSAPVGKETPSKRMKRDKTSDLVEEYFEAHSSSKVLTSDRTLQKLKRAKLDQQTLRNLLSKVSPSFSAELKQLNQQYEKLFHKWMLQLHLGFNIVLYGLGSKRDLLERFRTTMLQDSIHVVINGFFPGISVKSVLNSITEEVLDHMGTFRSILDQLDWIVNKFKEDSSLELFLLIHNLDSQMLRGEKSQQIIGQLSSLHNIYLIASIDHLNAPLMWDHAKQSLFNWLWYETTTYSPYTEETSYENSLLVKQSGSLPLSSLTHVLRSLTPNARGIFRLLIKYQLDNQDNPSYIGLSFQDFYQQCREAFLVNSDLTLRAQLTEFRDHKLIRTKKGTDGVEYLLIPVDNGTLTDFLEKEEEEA
UniProt Q92882: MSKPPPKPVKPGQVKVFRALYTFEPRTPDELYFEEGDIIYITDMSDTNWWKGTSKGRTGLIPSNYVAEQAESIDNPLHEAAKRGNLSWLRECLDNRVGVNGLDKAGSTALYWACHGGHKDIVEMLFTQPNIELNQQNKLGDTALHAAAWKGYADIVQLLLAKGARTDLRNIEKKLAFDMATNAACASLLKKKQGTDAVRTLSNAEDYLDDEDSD
UniProt Q96E22: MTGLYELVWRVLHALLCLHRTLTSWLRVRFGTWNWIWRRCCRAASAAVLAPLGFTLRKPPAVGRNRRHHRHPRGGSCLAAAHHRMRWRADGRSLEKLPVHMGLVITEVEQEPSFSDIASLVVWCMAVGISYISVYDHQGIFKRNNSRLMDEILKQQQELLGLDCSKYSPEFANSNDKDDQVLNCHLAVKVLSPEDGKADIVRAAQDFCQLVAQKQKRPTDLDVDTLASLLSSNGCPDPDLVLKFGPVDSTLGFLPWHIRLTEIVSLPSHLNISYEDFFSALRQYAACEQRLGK
UniProt Q9NRP0: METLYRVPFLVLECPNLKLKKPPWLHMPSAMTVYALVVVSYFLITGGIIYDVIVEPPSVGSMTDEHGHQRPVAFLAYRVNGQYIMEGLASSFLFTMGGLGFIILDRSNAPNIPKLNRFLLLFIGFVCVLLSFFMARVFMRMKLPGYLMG
UniProt P51003: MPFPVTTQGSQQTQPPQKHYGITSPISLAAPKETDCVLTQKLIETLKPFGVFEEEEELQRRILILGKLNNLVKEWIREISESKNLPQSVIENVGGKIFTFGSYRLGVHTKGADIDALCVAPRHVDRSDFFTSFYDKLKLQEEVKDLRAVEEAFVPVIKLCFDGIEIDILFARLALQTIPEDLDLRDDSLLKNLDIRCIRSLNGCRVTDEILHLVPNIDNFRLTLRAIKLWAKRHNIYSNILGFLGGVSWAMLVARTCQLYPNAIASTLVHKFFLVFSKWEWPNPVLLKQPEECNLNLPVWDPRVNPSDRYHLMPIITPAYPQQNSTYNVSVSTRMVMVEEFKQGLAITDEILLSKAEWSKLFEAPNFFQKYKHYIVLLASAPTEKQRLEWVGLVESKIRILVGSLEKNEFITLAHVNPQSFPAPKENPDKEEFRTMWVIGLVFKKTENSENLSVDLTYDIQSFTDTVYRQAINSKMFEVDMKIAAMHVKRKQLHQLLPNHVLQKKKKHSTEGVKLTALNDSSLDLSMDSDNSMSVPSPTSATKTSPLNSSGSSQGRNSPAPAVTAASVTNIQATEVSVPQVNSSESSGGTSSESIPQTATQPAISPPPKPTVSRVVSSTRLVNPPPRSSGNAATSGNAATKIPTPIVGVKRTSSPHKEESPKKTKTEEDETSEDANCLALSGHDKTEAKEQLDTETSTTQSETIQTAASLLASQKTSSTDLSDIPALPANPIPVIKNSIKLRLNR
UniProt P11940, whole entry, looked up: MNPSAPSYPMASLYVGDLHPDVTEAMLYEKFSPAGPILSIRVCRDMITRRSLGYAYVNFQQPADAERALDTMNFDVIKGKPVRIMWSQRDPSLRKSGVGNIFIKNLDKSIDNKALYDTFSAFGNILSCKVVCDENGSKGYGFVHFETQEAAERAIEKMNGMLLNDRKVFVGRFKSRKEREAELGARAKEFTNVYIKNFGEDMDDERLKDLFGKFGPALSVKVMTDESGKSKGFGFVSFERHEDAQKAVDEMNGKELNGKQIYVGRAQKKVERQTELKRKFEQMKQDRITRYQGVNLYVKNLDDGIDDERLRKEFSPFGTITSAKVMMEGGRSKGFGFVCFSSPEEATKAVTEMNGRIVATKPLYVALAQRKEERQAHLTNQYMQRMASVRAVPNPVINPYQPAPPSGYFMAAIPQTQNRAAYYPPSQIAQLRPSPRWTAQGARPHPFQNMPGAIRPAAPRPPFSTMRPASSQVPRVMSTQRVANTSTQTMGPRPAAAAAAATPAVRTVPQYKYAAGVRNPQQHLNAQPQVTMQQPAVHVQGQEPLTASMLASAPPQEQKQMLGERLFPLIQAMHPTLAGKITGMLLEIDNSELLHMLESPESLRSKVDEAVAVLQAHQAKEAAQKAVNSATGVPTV
UniProt P13674: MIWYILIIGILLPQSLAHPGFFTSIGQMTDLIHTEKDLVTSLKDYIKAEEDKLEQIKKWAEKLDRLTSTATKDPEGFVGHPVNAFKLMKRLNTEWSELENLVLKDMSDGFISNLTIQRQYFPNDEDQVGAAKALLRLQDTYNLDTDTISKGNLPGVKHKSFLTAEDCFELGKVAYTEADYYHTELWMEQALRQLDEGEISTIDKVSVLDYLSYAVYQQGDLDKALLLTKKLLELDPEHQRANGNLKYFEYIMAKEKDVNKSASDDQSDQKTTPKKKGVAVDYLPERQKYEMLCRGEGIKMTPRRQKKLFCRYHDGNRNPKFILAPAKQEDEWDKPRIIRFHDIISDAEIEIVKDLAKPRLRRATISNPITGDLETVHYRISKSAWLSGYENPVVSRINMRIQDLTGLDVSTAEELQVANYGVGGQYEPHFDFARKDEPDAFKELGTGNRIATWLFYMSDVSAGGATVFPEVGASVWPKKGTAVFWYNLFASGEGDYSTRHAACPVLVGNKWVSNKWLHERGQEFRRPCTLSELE
UniProt Q13153, whole entry, looked up: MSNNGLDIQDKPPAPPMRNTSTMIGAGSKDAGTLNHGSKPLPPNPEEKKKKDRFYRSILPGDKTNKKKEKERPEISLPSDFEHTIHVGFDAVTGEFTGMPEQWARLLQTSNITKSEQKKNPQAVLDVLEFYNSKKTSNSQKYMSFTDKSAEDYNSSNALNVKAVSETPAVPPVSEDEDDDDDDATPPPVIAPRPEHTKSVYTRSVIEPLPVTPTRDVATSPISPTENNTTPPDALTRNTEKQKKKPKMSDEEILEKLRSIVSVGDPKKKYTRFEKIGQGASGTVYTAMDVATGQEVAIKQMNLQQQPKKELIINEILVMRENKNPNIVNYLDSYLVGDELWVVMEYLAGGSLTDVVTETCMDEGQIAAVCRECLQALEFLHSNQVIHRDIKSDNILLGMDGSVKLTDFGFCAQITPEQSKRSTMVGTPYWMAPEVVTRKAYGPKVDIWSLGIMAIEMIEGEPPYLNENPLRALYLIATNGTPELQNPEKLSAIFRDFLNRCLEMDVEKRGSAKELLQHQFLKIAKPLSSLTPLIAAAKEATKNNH
UniProt Q5W0B1: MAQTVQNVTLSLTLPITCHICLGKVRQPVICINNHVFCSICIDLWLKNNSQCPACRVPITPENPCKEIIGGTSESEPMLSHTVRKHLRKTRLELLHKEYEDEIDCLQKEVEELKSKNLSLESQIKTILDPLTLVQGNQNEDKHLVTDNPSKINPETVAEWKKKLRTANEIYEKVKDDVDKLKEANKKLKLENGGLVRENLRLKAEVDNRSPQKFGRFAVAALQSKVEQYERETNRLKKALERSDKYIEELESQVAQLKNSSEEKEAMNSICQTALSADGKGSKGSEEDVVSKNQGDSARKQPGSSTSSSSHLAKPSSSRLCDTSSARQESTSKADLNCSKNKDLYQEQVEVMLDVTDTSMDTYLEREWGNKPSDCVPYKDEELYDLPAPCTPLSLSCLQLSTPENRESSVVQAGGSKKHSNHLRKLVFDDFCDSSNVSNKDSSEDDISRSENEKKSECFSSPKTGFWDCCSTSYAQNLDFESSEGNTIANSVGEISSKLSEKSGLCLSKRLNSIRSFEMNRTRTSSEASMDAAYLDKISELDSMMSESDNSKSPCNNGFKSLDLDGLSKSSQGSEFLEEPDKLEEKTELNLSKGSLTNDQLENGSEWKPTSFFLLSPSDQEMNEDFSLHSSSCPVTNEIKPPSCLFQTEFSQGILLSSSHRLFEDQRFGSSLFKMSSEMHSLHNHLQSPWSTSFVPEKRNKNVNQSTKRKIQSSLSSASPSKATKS

compound: O=C(O)c1ccc2c(c1)nc(Nc1cccc(Cl)c1)c1ccncc12 [silmitasertib]; test: log2 fold change, soluble protein after heating vs DMSO (PISA); higher = thermal stabilisation; K562 lysate, 10 uM; active = over 0.2 and 3.5 SD of the protein, either way, in both replicates (recomputed)
Summary of the method: (§1)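 Following dounce homogenisation of K562 pellets in PBS pH 7.4 with 1 mM MgCl2, crude extract at 1 mg/mL protein was incubated for 30 min with 10 μM compound. Aliquots were then heated for 3 min over 48°C-58°C and pooled, NP-40 was added to 0.5% at 4°C, and soluble protein was recovered as the supernatant at 21,000xg for 90 min. Channel-sum-equalised TMTpro 16plex LC-MS/MS quantified this protein. Each value, from duplicates, is a log-two fold change in thermal stability relative to solvent controls.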

log2 fold change, inactive:
PARL (UniProt Q9H300) -0.012, ORC5 (UniProt O43913) 0.072, PAGE1 (UniProt O75459) 0.036, PAIP2 (UniProt Q9BPZ3) -0.052, OSBPL8 (UniProt Q9BZF1) 0.007, OGFOD3 (UniProt Q6PK18) 0.032, NXF1 (UniProt Q9UBU9) -0.048, ORC2 (UniProt Q13416) 0.007, ORC4 (UniProt O43929) 0.059, OSTF1 (UniProt Q92882) 0.006, NUS1 (UniProt Q96E22) -0.031, PAGE5 (UniProt Q96GU1) -0.029, PANK1 (UniProt Q8TE04) 0.004, OSTC isoform 2 (UniProt Q9NRP0) 0.069, OMA1 (UniProt Q96E52) 0.018, OXA1L (UniProt Q15070) 0.017, P2RX4 isoform 2 (UniProt Q99571) 0.004, OTULIN (UniProt Q96BN8) 0.058, PAPOLA (UniProt P51003) -0.011, OBSL1 (UniProt O75147) 0.022, PABPC1 (UniProt P11940) 0.001, P4HA1 (UniProt P13674) -0.034, NUP210 (UniProt Q8TEM1) 0.022, PAK1 (UniProt Q13153) -0.046, PALMD (UniProt Q9NP74) 0.003, OBI1 (UniProt Q5W0B1) 0.073, OCIAD1 (UniProt Q9NX40) -0.016, PAN2 isoform 2 (UniProt Q504Q3) 0.038, PAIP1 (UniProt Q9H074) -0.047, OTUD5 isoform 5 (UniProt Q96G74) -0.034, PAK4 (UniProt O96013) -0.038, PAPOLG (UniProt Q9BWT3) 0.209, OXNAD1 (UniProt Q96HP4) 0.012

compound: O=C1NC(=O)C(c2cnc3ccccn23)=C1c1cn2c3c(cc(F)cc13)CN(C(=O)N1CCCCC1)CC2; test: as above
Summary of the method: as §1

log2 fold change, inactive:
PARL (UniProt Q9H300) -0.032, ORC5 (UniProt O43913) 0.011, PAGE1 (UniProt O75459) -0.044, PAIP2 (UniProt Q9BPZ3) -0.025, OSBPL8 (UniProt Q9BZF1) -0.028, OGFOD3 (UniProt Q6PK18) -0.045, NXF1 (UniProt Q9UBU9) 0.026, ORC2 (UniProt Q13416) 0.049, ORC4 (UniProt O43929) 0.01, OSTF1 (UniProt Q92882) -0.01, NUS1 (UniProt Q96E22) -0.048, PAGE5 (UniProt Q96GU1) 0.056, PANK1 (UniProt Q8TE04) -0.039, OSTC isoform 2 (UniProt Q9NRP0) 0.063, OMA1 (UniProt Q96E52) -0.008, OXA1L (UniProt Q15070) -0.002, P2RX4 isoform 2 (UniProt Q99571) -0.001, OTULIN (UniProt Q96BN8) 0.051, PAPOLA (UniProt P51003) -0.054, OBSL1 (UniProt O75147) -0.031, PABPC1 (UniProt P11940) -0.045, P4HA1 (UniProt P13674) 0.013, NUP210 (UniProt Q8TEM1) -0.013, PAK1 (UniProt Q13153) -0.001, PALMD (UniProt Q9NP74) -0.009, OBI1 (UniProt Q5W0B1) 0.052, OCIAD1 (UniProt Q9NX40) 0.005, PAN2 isoform 2 (UniProt Q504Q3) -0.056, PAIP1 (UniProt Q9H074) 0.007, OTUD5 isoform 5 (UniProt Q96G74) 0.017, PAK4 (UniProt O96013) 0.028, PAPOLG (UniProt Q9BWT3) 0.066, OXNAD1 (UniProt Q96HP4) -0.016

compound: c1cn2cc(-c3ccc4cn[nH]c4c3)nc(Nc3ccc(N4CCOCC4)cc3)c2n1 [entospletinib]; test: as above
Summary of the method: as §1

log2 fold change, inactive:
PARL (UniProt Q9H300) 0.005, ORC5 (UniProt O43913) 0.066, PAGE1 (UniProt O75459) -0.068, PAIP2 (UniProt Q9BPZ3) -0.027, OSBPL8 (UniProt Q9BZF1) -0.095, OGFOD3 (UniProt Q6PK18) -0.044, NXF1 (UniProt Q9UBU9) 0.036, ORC2 (UniProt Q13416) 0.021, ORC4 (UniProt O43929) -0.013, OSTF1 (UniProt Q92882) -0.003, NUS1 (UniProt Q96E22) 0.05, PAGE5 (UniProt Q96GU1) 0.061, PANK1 (UniProt Q8TE04) 0.08, OSTC isoform 2 (UniProt Q9NRP0) 0.023, OMA1 (UniProt Q96E52) 0.001, OXA1L (UniProt Q15070) -0.003, P2RX4 isoform 2 (UniProt Q99571) -0.025, OTULIN (UniProt Q96BN8) 0.009, PAPOLA (UniProt P51003) 0.006, OBSL1 (UniProt O75147) 0.008, PABPC1 (UniProt P11940) 0.01, P4HA1 (UniProt P13674) -0.017, NUP210 (UniProt Q8TEM1) -0.038, PAK1 (UniProt Q13153) 0.051, PALMD (UniProt Q9NP74) -0.302, OBI1 (UniProt Q5W0B1) 0.002, OCIAD1 (UniProt Q9NX40) -0.006, PAN2 isoform 2 (UniProt Q504Q3) 0.038, PAIP1 (UniProt Q9H074) -0.003, OTUD5 isoform 5 (UniProt Q96G74) 0.028, PAK4 (UniProt O96013) 0.05, PAPOLG (UniProt Q9BWT3) -0.013, OXNAD1 (UniProt Q96HP4) 0.002
